{
  "source": "patent US20240299591A1",
  "about": "(priority 2021, published 2024)",
  "key": {"[1]": {"tested_on": "reconstructed cornea-like epithelium (RhCE, EpiOcular™)", "assay": "Viability of reconstructed cornea-like epithelium (eye irritation model)", "type": "cell-based", "details": "10 μM", "description": "FIG. 4a is a graph of the viability reconstructed cornea-like epithelium (RhCE, EpiOcular™) after incubation with MFIGA001. NC=Negative Control; PC=Positive Control. FIG. 4b is a graph of the viability reconstructed cornea-like epithelium (RhCE, EpiOcular™) after incubation with 10 µM of MFIGA001a and MFIGAF001b. NC=Negative Control; PC=Positive Control; A2=MFIGAF001a; and B1=MFIGAF001b.\nMFIGAF001 was also assessed independently by a CRO (Evotec) in an OECD compliant reconstructed cornea-like epithelial cell model (RhCE, EpiOcular™)."}, "[2]": {"assay": "general procedure: Fmoc solid-phase peptide synthesis; 2-chlorotrityl polystyrene resin", "details": "whole synthesis"}},
  "note": "Where no unit stands, none is given here, and values compare only within one read-out. Where a SMILES comes first, the peptide text is derived from it. [ ]: non-standard residue; d: D form. The star is where a group is joined. X1 = CN1/C(=C/C=C(/C=C/C2=[N+](C)c3ccccc3C2(C)C)c2ccc(C(=O)*)cn2)C(C)(C)c2ccccc21",
  "data": [
    {"compound": "CN1/C(=C/C=C(/C=C/C2=[N+](C)c3ccccc3C2(C)C)c2ccc(C(=O)NCCCC[C@@H]3NC(=O)[C@H](Cc4c[nH]c5ccccc45)NC(=O)[C@H](Cc4ccccc4)NC(=O)[C@H](Cc4c[nH]c5ccccc45)NC(=O)[C@@H](Cc4ccccc4)NC(=O)[C@H](CCCCN)NC(=O)[C@H](CCCCN)NC(=O)[C@H](CCCNC(=N)N)NC(=O)CNC3=O)cn2)C(C)(C)c2ccccc21", "note": "[MFIGAF001a, Cyclo(Arg-Lys-Lys-phe-Trp-Phe-Trp-Lys(Cy5)-Gly)] (cyclo(FWK(X1)GRKK[dF]W))", "values": [
      {"measurement": "Mean of OD", "setting": "[1]", "value": 3.282}
    ]},
    {"compound": "Cyclo(Arg-Lys-Lys-ala-Trp-Phe-Trp-Gly)", "values": [
      {"measurement": "final HPLC purity", "setting": "[2]; HPLC (254 nm)", "value": ">99", "unit": "%"}
    ]},
    {"compound": "Cyclo(Arg-Lys-Lys-phe-Trp-Phe-Trp-Gly)", "values": [
      {"measurement": "final HPLC purity", "setting": "[2]; HPLC (254 nm)", "value": ">99", "unit": "%"}
    ]},
    {"compound": "Cyclo(Arg-Lys-Lys-phe-Trp-Phe-Trp-Lys(CF))", "values": [
      {"measurement": "final HPLC purity", "setting": "[2]; HPLC (254 nm)", "value": 91, "unit": "%"}
    ]},
    {"compound": "Cyclo(Arg-Lys-Lys-phe-Trp-Phe-Trp-Lys(CF)-Gly)", "values": [
      {"measurement": "final HPLC purity", "setting": "[2]; HPLC (254 nm)", "value": 76, "unit": "%"}
    ]},
    {"compound": "Cyclo(Arg-Lys-Lys-phe-Trp-Phe-Trp-Lys(Cy5))", "values": [
      {"measurement": "final HPLC purity", "setting": "[2]; HPLC (254 nm)", "value": 93, "unit": "%"}
    ]},
    {"compound": "Cyclo(Arg-Lys-Lys-phe-Trp-Phe-Trp-Lys(Cy5)-Gly)", "values": [
      {"measurement": "final HPLC purity", "setting": "[2]; HPLC (254 nm)", "value": ">99", "unit": "%"}
    ]},
    {"compound": "Cyclo(Arg-Lys-Lys-pro-Trp-Phe-Trp-Gly)", "values": [
      {"measurement": "final HPLC purity", "setting": "[2]; HPLC (254 nm)", "value": ">99", "unit": "%"}
    ]},
    {"compound": "H-RKKPWFWG-OH", "values": [
      {"measurement": "final HPLC purity", "setting": "[2]; 254 nm", "value": 83, "unit": "%"}
    ]},
    {"compound": "NH2-Arg-Lys-Lys-ala-Trp-Phe-Trp-Gly-COOH", "values": [
      {"measurement": "final HPLC purity", "setting": "[2]; 254 nm", "value": 88, "unit": "%"}
    ]},
    {"compound": "NH2-Arg-Lys-Lys-phe-Trp-Phe-Trp-Gly-COOH", "values": [
      {"measurement": "final HPLC purity", "setting": "[2]; 254 nm", "value": 90, "unit": "%"}
    ]},
    {"compound": "NH2-Arg-Lys-Lys-pro-Trp-Phe-Trp-Gly-COOH", "values": [
      {"measurement": "final HPLC purity", "setting": "[2]; 254 nm", "value": 91, "unit": "%"}
    ]},
    {"compound": "cyclo(RKKPWFWG)", "values": [
      {"measurement": "final HPLC purity", "setting": "[2]; HPLC (254 nm)", "value": ">99", "unit": "%"}
    ]}
  ]
}
